Experimental data: the supplement of paper PMC4604168 (melanoma cell lines)
This is one part of the list. Repeats are few or missing, and single values can be far off.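 The apoptosis fraction was the count of cleaved-PARP antibody-stained nuclei relative to all DNA-stained nuclei, imaged in 1,536-well plates. Screening doses were set so most cells survived, and baseline and induced cleaved-PARP levels vary greatly across cell lines.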

Each compound was assayed on WM1745 (assay: cleaved PARP positive nuclei fraction relative to DMSO control; melanoma cells; higher = more apoptosis). Settings: library dose: low library concentration; 72 h.

| SMILES | cleaved PARP positive nuclei fraction |
| --- | --- |
| Cn1c(Nc2ccc(C(F)(F)F)cc2)nc2cc(Oc3ccnc(-c4ncc(C(F)(F)F)[nH]4)c3)ccc21 + COCC[n+]1c2c(n(Cc3cnccn3)c1C)C(=O)c1ccccc1C2=O [YM155] (first compound 0.08 µM, partner dose 0.0004 µM) | 135% |
| Clc1ccc(Nc2nnc(Cc3ccncc3)c3ccccc23)cc1 [vatalanib] + C#Cc1cccc(Nc2ncnc3cc(OCCOC)c(OCCOC)cc23)c1 [erlotinib] (first compound 2 µM, partner dose 0.8 µM) | 121% |
| C=CCNC1=C2C[C@@H](C)C[C@H](OC)[C@H](O)[C@@H](C)/C=C(\C)[C@H](OC(N)=O)[C@@H](OC)/C=C\C=C(/C)C(=O)NC(=CC1=O)C2=O [Tanespimycin] + CC(C)CCN1c2nc(Nc3cc(F)c(O)c(F)c3)ncc2N(C)C(=O)C1C [BID1870] (first compound 0.002 µM, partner dose 0.2 µM) | 91.1% |

The compounds below were run on WM3526 in the same assay as above. Settings: library dose: low library concentration; 72 h.

| SMILES | cleaved PARP positive nuclei fraction |
| --- | --- |
| CC(=O)c1c(C)c2cnc(Nc3ccc(N4CCNCC4)cn3)nc2n(C2CCCC2)c1=O [palbociclib] + Nc1cccc2c1CN(C1CCC(=O)NC1=O)C2=O [lenalidomide] (first compound 0.04 µM, partner dose 1 µM) | 63.8% |
| CC(=O)c1c(C)c2cnc(Nc3ccc(N4CCNCC4)cn3)nc2n(C2CCCC2)c1=O [palbociclib] + COc1ccc(Cl)c(Nc2nc3ccccc3nc2NS(=O)(=O)c2cccc(NC(=O)C(C)(C)N)c2)c1 [XL147] (first compound 0.04 µM, partner dose 0.8 µM) | 78.4% |
| CC(=O)c1c(C)c2cnc(Nc3ccc(N4CCNCC4)cn3)nc2n(C2CCCC2)c1=O [palbociclib] + Cc1nc(Nc2ncc(C(=O)Nc3c(C)cccc3Cl)s2)cc(N2CCN(CCO)CC2)n1 [dasatanib] (first compound 0.04 µM, partner dose 0.004 µM) | 72.3% |
| C=CCNC1=C2C[C@@H](C)C[C@H](OC)[C@H](O)[C@@H](C)/C=C(\C)[C@H](OC(N)=O)[C@@H](OC)/C=C\C=C(/C)C(=O)NC(=CC1=O)C2=O [Tanespimycin] + COc1ccc(Cl)c(Nc2nc3ccccc3nc2NS(=O)(=O)c2cccc(NC(=O)C(C)(C)N)c2)c1 [XL147] (first compound 0.002 µM, partner dose 0.8 µM) | 48.5% |
| OCc1c[nH]c2ccccc12 [Indole-3-carbinol] + C#Cc1cccc(Nc2ncnc3cc(OCCOC)c(OCCOC)cc23)c1 [erlotinib] (first compound 0.8 µM, partner dose 0.8 µM) | 45.6% |
| CC(=O)c1c(C)c2cnc(Nc3ccc(N4CCNCC4)cn3)nc2n(C2CCCC2)c1=O [palbociclib] + C[C@]1(c2nc3c(C(N)=O)cccc3[nH]2)CCCN1 [Veliparib] (first compound 0.04 µM, partner dose 1.4 µM) | 84.4% |
| C=CCNC1=C2C[C@@H](C)C[C@H](OC)[C@H](O)[C@@H](C)/C=C(\C)[C@H](OC(N)=O)[C@@H](OC)/C=C\C=C(/C)C(=O)NC(=CC1=O)C2=O [Tanespimycin] + C#Cc1cccc(Nc2ncnc3cc(OCCOC)c(OCCOC)cc23)c1 [erlotinib] (first compound 0.002 µM, partner dose 0.8 µM) | 81.6% |
| C=CCNC1=C2C[C@@H](C)C[C@H](OC)[C@H](O)[C@@H](C)/C=C(\C)[C@H](OC(N)=O)[C@@H](OC)/C=C\C=C(/C)C(=O)NC(=CC1=O)C2=O [Tanespimycin] + Clc1ccc(Nc2nnc(Cc3ccncc3)c3ccccc23)cc1 [vatalanib] (first compound 0.002 µM, partner dose 2 µM) | 44% |
| COCC[n+]1c2c(n(Cc3cnccn3)c1C)C(=O)c1ccccc1C2=O + Nc1cccc2c1CN(C1CCC(=O)NC1=O)C2=O [lenalidomide] (first compound 0.0004 µM, partner dose 1 µM) | 56.6% |
| C#Cc1cccc(Nc2ncnc3cc(OCCOC)c(OCCOC)cc23)c1 [erlotinib] + C[C@]1(c2nc3c(C(N)=O)cccc3[nH]2)CCCN1 [Veliparib] (first compound 0.8 µM, partner dose 1.4 µM) | 59.9% |
| CC(=O)c1c(C)c2cnc(Nc3ccc(N4CCNCC4)cn3)nc2n(C2CCCC2)c1=O [palbociclib] + C#Cc1cccc(Nc2ncnc3cc(OCCOC)c(OCCOC)cc23)c1 [erlotinib] (first compound 0.04 µM, partner dose 0.8 µM) | 147% |
| Nc1cccc2c1CN(C1CCC(=O)NC1=O)C2=O (stereo unspecified) [lenalidomide] + COc1cc(Nc2ncc(F)c(Nc3ccc4c(n3)NC(=O)C(C)(C)O4)n2)cc(OC)c1OC [Tamatinib] (first compound 1 µM, partner dose 0.4 µM) | 55.9% |
| C[C@]1(c2nc3c(C(N)=O)cccc3[nH]2)CCCN1 [Veliparib] + CC(C)(C)c1cnc(CSc2cnc(NC(=O)C3CCNCC3)s2)o1 [SNS-032] (first compound 1.4 µM, partner dose 0.01 µM) | 27.4% |
| Cc1nc(Nc2ncc(C(=O)Nc3c(C)cccc3Cl)s2)cc(N2CCN(CCO)CC2)n1 [dasatanib] + Nc1cccc2c1CN(C1CCC(=O)NC1=O)C2=O [lenalidomide] (first compound 0.004 µM, partner dose 1 µM) | 122% |
| CC(=O)c1c(C)c2cnc(Nc3ccc(N4CCNCC4)cn3)nc2n(C2CCCC2)c1=O [palbociclib] + OCc1c[nH]c2ccccc12 [Indole-3-carbinol] (first compound 0.04 µM, partner dose 0.8 µM) | 54.8% |
| Clc1ccc(Nc2nnc(Cc3ccncc3)c3ccccc23)cc1 [vatalanib] + COCC[n+]1c2c(n(Cc3cnccn3)c1C)C(=O)c1ccccc1C2=O [YM155] (first compound 2 µM, partner dose 0.0004 µM) | 45.8% |
| CC1(C)NC(=O)N(c2ccc([N+](=O)[O-])c(C(F)(F)F)c2)C1=O [nilutamide] + O=C(Nc1cccc(Cl)c1)Nc1ncc(CCNc2ncnc3ccsc23)s1 [SNS314] (first compound 1 µM, partner dose 0.0008 µM) | 50.9% |
| Nc1cccc2c1CN(C1CCC(=O)NC1=O)C2=O (stereo unspecified) [lenalidomide] + C[C@]1(c2nc3c(C(N)=O)cccc3[nH]2)CCCN1 [Veliparib] (first compound 1 µM, partner dose 1.4 µM) | 38.6% |
| OCc1c[nH]c2ccccc12 [Indole-3-carbinol] + COc1ccc(Cl)c(Nc2nc3ccccc3nc2NS(=O)(=O)c2cccc(NC(=O)C(C)(C)N)c2)c1 [XL147] (first compound 0.8 µM, partner dose 0.8 µM) | 814% |
| CC(=O)c1c(C)c2cnc(Nc3ccc(N4CCNCC4)cn3)nc2n(C2CCCC2)c1=O [palbociclib] + Clc1ccc(Nc2nnc(Cc3ccncc3)c3ccccc23)cc1 [vatalanib] (first compound 0.04 µM, partner dose 2 µM) | 60.9% |
| Cn1nnc2c(C(N)=O)ncn2c1=O [temozolomide] + C[C@@H]1CCN(C(=O)CC#N)C[C@@H]1N(C)c1ncnc2[nH]ccc12 [CP690550] (first compound 2 µM, partner dose 1 µM) | 112% |
| Cc1nc(Nc2ncc(C(=O)Nc3c(C)cccc3Cl)s2)cc(N2CCN(CCO)CC2)n1 [dasatanib] + Cn1nnc2c(C(N)=O)ncn2c1=O [temozolomide] (first compound 0.004 µM, partner dose 2 µM) | 41.3% |
| OCc1c[nH]c2ccccc12 [Indole-3-carbinol] + COCC[n+]1c2c(n(Cc3cnccn3)c1C)C(=O)c1ccccc1C2=O [YM155] (first compound 0.8 µM, partner dose 0.0004 µM) | 47.7% |
| Clc1ccc(Nc2nnc(Cc3ccncc3)c3ccccc23)cc1 [vatalanib] + C=CCn1c(=O)c2cnc(Nc3ccc(N4CCN(C)CC4)cc3)nc2n1-c1cccc(C(C)(C)O)n1 [MK1775] (first compound 2 µM, partner dose 0.02 µM) | 54.2% |
| C#Cc1cccc(Nc2ncnc3cc(OCCOC)c(OCCOC)cc23)c1 [erlotinib] + COCC[n+]1c2c(n(Cc3cnccn3)c1C)C(=O)c1ccccc1C2=O [YM155] (first compound 0.8 µM, partner dose 0.0004 µM) | 298% |
| Cc1nc(Nc2ncc(C(=O)Nc3c(C)cccc3Cl)s2)cc(N2CCN(CCO)CC2)n1 [dasatanib] + Cn1c(Nc2ccc(C(F)(F)F)cc2)nc2cc(Oc3ccnc(-c4ncc(C(F)(F)F)[nH]4)c3)ccc21 [CHIR265] (first compound 0.004 µM, partner dose 0.08 µM) | 126% |
| CC(C)(C)c1cnc(CSc2cnc(NC(=O)C3CCNCC3)s2)o1 + Cc1cc(N2CCOCC2)cc2[nH]c(-c3c(NC[C@@H](O)c4cccc(Cl)c4)cc[nH]c3=O)nc12 [BMS536924] (first compound 0.01 µM, partner dose 0.2 µM) | 25.5% |
| OCc1c[nH]c2ccccc12 [Indole-3-carbinol] + Nc1cccc2c1CN(C1CCC(=O)NC1=O)C2=O [lenalidomide] (first compound 0.8 µM, partner dose 1 µM) | 80% |

A few values from the results shown.
cleaved PARP positive nuclei fraction with OCc1c[nH]c2ccccc12 [Indole-3-carbinol] + C#Cc1cccc(Nc2ncnc3cc(OCCOC)c(OCCOC)cc23)c1 [erlotinib] (first compound 0.8 µM, partner dose 0.8 µM) reads 45.6%
cleaved PARP positive nuclei fraction with Cc1nc(Nc2ncc(C(=O)Nc3c(C)cccc3Cl)s2)cc(N2CCN(CCO)CC2)n1 [dasatanib] + Cn1nnc2c(C(N)=O)ncn2c1=O [temozolomide] (first compound 0.004 µM, partner dose 2 µM) reads 41.3%
